{"sequences": {"note": "Chains of the proteins cited; added tags and fusions are not shown. Lines headed by an entry give the natural chain unless they say otherwise; changes in a name come on top.", "UniProt Q9NVI1": "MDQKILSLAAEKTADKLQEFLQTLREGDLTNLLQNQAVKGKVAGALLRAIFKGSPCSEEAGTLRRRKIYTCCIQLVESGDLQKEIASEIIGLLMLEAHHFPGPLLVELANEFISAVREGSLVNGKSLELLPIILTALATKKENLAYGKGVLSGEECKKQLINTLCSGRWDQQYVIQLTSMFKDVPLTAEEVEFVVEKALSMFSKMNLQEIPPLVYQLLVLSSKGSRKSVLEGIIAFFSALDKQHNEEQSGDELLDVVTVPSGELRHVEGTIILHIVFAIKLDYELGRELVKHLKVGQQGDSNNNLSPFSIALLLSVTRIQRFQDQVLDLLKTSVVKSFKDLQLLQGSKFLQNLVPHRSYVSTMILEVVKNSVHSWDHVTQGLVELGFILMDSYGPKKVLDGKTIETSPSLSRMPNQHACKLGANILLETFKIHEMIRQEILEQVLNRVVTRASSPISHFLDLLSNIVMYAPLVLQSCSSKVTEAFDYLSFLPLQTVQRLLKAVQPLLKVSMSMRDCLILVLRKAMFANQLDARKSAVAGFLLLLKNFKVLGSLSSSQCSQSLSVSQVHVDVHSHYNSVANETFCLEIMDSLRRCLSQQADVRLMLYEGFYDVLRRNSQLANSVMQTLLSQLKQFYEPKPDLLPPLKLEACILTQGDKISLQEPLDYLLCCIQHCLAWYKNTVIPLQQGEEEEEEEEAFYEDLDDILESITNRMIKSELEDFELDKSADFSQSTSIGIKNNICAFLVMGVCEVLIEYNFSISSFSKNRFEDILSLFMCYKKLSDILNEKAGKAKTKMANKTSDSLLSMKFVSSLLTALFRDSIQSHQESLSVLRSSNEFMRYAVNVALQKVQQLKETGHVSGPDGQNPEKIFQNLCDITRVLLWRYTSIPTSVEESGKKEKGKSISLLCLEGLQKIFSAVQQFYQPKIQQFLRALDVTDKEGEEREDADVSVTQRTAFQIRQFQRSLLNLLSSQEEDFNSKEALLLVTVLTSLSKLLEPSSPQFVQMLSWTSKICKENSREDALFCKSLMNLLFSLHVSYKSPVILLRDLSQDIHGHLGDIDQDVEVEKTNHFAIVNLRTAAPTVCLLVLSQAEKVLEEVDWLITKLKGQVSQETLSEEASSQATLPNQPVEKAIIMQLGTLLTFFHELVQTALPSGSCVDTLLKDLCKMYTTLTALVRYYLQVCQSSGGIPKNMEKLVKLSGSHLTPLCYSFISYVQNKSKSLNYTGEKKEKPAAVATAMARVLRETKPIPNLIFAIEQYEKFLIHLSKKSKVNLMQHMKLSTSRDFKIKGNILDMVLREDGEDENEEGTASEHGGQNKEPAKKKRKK", "UniProt Q96K12": "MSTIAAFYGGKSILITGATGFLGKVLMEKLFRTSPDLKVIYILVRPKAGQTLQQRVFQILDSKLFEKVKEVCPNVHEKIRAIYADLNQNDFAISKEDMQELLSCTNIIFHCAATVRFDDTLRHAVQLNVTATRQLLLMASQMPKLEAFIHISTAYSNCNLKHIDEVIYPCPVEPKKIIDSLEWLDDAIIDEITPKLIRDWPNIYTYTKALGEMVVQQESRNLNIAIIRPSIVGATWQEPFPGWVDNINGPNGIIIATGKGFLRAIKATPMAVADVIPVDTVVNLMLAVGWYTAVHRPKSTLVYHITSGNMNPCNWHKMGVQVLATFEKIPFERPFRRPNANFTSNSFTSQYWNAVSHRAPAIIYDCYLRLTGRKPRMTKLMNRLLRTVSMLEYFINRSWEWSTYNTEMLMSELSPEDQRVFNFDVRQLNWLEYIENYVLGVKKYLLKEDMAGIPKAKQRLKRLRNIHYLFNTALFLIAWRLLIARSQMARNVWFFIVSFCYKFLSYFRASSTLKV", "UniProt Q8IYT2": "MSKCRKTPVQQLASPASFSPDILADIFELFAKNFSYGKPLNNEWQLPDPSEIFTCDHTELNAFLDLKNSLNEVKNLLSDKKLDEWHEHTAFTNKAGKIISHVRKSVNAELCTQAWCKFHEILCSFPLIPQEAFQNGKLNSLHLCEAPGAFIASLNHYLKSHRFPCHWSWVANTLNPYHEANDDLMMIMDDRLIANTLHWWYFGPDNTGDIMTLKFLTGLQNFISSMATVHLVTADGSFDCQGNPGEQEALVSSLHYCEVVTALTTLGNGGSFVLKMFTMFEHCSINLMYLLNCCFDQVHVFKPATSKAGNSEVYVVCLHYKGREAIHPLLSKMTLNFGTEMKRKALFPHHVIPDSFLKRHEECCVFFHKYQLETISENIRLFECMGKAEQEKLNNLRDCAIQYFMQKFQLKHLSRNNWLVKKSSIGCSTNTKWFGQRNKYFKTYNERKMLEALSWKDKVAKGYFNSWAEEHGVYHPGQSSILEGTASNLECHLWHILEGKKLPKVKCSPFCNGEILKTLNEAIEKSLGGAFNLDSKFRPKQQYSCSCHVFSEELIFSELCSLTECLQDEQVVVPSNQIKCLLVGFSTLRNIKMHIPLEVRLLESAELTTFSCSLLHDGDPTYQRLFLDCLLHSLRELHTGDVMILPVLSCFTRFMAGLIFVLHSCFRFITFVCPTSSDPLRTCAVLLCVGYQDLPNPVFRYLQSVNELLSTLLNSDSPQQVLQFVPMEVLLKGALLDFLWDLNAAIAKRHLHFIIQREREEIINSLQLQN", "UniProt Q96A65": "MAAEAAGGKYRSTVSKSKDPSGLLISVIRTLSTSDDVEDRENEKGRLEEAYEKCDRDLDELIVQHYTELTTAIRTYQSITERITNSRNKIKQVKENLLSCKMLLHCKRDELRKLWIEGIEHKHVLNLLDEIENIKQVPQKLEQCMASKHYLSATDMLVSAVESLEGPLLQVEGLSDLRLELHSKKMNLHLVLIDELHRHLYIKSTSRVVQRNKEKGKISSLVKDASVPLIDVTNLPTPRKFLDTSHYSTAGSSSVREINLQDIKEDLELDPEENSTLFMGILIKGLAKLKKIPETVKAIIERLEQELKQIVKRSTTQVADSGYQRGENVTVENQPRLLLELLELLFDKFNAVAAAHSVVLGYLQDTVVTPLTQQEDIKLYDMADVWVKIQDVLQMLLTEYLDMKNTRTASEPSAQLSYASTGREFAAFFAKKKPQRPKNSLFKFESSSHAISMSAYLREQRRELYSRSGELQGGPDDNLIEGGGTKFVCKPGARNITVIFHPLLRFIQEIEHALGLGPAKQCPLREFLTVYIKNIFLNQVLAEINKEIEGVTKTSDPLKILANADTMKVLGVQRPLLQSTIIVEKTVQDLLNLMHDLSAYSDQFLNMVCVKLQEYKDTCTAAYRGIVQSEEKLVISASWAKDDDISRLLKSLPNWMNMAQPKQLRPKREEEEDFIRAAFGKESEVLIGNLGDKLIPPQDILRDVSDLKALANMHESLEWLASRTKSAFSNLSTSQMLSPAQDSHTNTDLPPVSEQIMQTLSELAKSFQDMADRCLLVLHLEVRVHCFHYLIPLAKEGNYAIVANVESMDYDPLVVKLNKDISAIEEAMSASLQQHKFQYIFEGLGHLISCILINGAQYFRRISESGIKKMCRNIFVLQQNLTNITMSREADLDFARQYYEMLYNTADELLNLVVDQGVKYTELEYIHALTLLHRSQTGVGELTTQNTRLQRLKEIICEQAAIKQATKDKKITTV", "UniProt Q02790": "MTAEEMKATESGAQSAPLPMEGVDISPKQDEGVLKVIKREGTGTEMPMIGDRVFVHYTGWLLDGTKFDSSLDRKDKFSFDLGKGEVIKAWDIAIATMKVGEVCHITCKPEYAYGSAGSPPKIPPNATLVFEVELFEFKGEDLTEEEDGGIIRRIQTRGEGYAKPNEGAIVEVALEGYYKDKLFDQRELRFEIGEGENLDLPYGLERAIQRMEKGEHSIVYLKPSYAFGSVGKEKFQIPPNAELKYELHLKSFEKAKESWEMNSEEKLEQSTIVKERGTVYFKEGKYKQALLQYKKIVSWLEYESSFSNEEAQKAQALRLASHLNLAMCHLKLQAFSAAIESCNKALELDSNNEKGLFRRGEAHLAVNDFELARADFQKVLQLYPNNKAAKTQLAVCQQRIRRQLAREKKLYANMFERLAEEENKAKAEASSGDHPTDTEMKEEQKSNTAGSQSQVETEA", "UniProt Q5T1M5": "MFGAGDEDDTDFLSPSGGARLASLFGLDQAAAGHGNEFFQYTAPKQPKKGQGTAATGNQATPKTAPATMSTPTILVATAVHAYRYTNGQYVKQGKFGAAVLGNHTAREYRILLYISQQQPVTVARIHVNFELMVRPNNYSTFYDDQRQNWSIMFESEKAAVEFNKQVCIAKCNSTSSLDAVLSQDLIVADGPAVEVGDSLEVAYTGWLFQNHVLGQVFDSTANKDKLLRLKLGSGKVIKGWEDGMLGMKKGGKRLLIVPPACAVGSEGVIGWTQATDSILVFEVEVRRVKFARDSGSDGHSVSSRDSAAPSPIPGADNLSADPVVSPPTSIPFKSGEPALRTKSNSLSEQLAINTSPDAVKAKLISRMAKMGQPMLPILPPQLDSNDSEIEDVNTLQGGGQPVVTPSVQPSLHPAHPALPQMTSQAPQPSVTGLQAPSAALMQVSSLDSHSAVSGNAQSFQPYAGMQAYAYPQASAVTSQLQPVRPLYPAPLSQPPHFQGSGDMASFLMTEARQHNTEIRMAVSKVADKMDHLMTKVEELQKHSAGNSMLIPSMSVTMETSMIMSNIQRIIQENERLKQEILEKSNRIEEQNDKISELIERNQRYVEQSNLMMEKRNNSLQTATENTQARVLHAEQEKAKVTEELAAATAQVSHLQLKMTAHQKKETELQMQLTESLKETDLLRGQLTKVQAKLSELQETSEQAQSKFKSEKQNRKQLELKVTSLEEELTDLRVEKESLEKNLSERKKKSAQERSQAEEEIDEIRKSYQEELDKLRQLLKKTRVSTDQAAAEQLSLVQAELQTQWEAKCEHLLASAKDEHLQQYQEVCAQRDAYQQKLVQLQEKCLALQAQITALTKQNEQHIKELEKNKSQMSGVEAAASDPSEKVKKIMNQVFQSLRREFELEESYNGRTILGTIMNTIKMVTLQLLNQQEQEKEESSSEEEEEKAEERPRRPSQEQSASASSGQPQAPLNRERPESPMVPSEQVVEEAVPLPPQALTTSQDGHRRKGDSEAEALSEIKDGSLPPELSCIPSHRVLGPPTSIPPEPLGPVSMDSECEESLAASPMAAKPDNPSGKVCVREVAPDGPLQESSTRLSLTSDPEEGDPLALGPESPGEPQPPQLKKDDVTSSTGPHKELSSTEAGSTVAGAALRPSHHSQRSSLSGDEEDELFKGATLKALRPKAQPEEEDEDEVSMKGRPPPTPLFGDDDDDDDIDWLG", "UniProt P60520, whole entry": "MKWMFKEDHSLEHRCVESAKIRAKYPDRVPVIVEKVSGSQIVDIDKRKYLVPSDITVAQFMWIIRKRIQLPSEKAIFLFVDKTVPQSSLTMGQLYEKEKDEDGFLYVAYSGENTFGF", "UniProt Q9H019": "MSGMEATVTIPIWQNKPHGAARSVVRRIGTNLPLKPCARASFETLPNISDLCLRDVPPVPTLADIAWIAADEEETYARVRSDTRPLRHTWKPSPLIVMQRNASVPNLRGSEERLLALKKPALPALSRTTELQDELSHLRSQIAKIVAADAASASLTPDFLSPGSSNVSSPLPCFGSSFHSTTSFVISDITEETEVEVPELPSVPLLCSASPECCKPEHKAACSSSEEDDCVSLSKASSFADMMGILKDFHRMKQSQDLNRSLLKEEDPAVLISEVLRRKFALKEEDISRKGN", "UniProt P06241, whole entry, looked up": "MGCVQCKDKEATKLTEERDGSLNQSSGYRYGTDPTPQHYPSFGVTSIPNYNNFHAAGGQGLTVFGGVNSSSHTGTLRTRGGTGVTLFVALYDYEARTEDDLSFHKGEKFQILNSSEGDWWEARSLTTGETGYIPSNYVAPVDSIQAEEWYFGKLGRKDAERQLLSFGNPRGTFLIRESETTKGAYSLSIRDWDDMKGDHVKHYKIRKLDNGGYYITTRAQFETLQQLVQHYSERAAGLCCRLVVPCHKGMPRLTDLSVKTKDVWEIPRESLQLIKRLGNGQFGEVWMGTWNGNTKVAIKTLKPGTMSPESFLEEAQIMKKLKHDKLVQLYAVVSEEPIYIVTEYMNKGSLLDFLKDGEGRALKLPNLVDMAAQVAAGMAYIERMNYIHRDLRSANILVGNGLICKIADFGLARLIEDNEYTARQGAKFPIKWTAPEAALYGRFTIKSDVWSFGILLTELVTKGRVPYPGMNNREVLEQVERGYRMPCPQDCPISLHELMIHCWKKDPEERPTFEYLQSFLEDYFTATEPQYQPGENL", "UniProt Q96DB5": "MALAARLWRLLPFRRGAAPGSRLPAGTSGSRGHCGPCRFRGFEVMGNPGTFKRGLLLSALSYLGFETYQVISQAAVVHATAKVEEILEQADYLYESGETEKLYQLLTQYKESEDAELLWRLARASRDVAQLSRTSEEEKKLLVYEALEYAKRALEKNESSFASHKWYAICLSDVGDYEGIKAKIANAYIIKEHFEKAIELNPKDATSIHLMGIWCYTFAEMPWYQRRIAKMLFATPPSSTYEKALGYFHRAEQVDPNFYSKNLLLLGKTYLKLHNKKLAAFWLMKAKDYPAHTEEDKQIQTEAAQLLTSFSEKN"}, "source": "the supplement of paper PMC7666118", "note": "Some of the results follow."}
{"compound": "COc1ccc(Cn2ccc3ccc(C(=O)NO)cc32)cc1", "test": "dose-dependent thermal stabilisation call (2D-TPP, DLPTP, 10% FDR) (binary (1 = stabilised)); higher = stabilised by the compound", "conditions": "system: HL-60 intact cells; concentration range 0.04-10 µM"}
{"target": "FUCA1 (UniProt P04066)", "dose-dependent thermal stabilisation call": "inactive: 0"}
{"target": "FAM45A (UniProt Q8TCE6)", "dose-dependent thermal stabilisation call": "inactive: 0"}
{"target": "FANCI (UniProt Q9NVI1)", "dose-dependent thermal stabilisation call": "inactive: 0"}
{"target": "FAM175B (UniProt Q15018)", "dose-dependent thermal stabilisation call": "inactive: 0"}
{"target": "FKBP8 (UniProt Q14318)", "dose-dependent thermal stabilisation call": "inactive: 0"}
{"target": "FAM120C (UniProt Q9NX05)", "dose-dependent thermal stabilisation call": "inactive: 0"}
{"target": "FAR2 (UniProt Q96K12)", "dose-dependent thermal stabilisation call": "inactive: 0"}
{"target": "FTSJD1 (UniProt Q8IYT2)", "dose-dependent thermal stabilisation call": "inactive: 0"}
{"target": "EXOC4 (UniProt Q96A65)", "dose-dependent thermal stabilisation call": "inactive: 0"}
{"target": "GALK2 (UniProt Q01415)", "dose-dependent thermal stabilisation call": "inactive: 0"}
{"target": "GAA (UniProt P10253)", "dose-dependent thermal stabilisation call": "inactive: 0"}
{"target": "FAM32A (UniProt Q9Y421)", "dose-dependent thermal stabilisation call": "inactive: 0"}
{"target": "FKBP4 (UniProt Q02790)", "dose-dependent thermal stabilisation call": "inactive: 0"}
{"target": "FHL3 (UniProt Q13643)", "dose-dependent thermal stabilisation call": "inactive: 0"}
{"target": "FKBP15 (UniProt Q5T1M5)", "dose-dependent thermal stabilisation call": "inactive: 0"}
{"target": "FMR1 (UniProt Q06787)", "dose-dependent thermal stabilisation call": "inactive: 0"}
{"target": "GABARAPL2 (UniProt P60520)", "dose-dependent thermal stabilisation call": "inactive: 0"}
{"target": "GAN (UniProt Q9H2C0)", "dose-dependent thermal stabilisation call": "inactive: 0"}
{"target": "GATM (UniProt P50440)", "dose-dependent thermal stabilisation call": "inactive: 0"}
{"target": "GART (UniProt P22102)", "dose-dependent thermal stabilisation call": "inactive: 0"}
{"target": "EXOSC3 (UniProt Q9NQT5)", "dose-dependent thermal stabilisation call": "inactive: 0"}
{"target": "FAM54B (UniProt Q9H019)", "dose-dependent thermal stabilisation call": "inactive: 0"}
{"target": "FAM160A2 (UniProt Q8N612)", "dose-dependent thermal stabilisation call": "inactive: 0"}
{"target": "FBXO21 (UniProt O94952)", "dose-dependent thermal stabilisation call": "inactive: 0"}
{"target": "GALNT2 (UniProt Q10471)", "dose-dependent thermal stabilisation call": "inactive: 0"}
{"target": "FBXO22 (UniProt Q8NEZ5)", "dose-dependent thermal stabilisation call": "inactive: 0"}
{"target": "FAM185A (UniProt Q8N0U4)", "dose-dependent thermal stabilisation call": "inactive: 0"}
{"target": "FYN (UniProt P06241)", "dose-dependent thermal stabilisation call": "inactive: 0"}
{"target": "FAM82A2 (UniProt Q96TC7)", "dose-dependent thermal stabilisation call": "inactive: 0"}
{"target": "FASTKD2 (UniProt Q9NYY8)", "dose-dependent thermal stabilisation call": "inactive: 0"}
{"target": "GADD45GIP1 (UniProt Q8TAE8)", "dose-dependent thermal stabilisation call": "inactive: 0"}
{"target": "EXDL2 (UniProt Q9NVH0)", "dose-dependent thermal stabilisation call": "inactive: 0"}
{"target": "FLII (UniProt Q13045)", "dose-dependent thermal stabilisation call": "inactive: 0"}
{"target": "FAHD2A (UniProt Q96GK7)", "dose-dependent thermal stabilisation call": "inactive: 0"}
{"target": "FRY (UniProt Q5TBA9)", "dose-dependent thermal stabilisation call": "inactive: 0"}
{"target": "FAM82B (UniProt Q96DB5)", "dose-dependent thermal stabilisation call": "inactive: 0"}
{"target": "FBXO3 (UniProt Q9UK99)", "dose-dependent thermal stabilisation call": "inactive: 0"}
{"target": "G3BP1 (UniProt Q13283)", "dose-dependent thermal stabilisation call": "inactive: 0"}
